Results from publication doi:10.1101/2019.12.19.882779.
No constants are given. Whether binding was seen depends on the method and setting. In cells and extracts the contact can be indirect. Binding calls can cover weak binding; strength is not graded here. Where a sequence is shown, tags or fusion partners need not be part of it.

T1: Flag-Firefly luciferase-Yki2 (Yorkie isoform with two WW domains, includes exon 3) (Drosophila) (UniProt Q45VV3)
T1 sequence: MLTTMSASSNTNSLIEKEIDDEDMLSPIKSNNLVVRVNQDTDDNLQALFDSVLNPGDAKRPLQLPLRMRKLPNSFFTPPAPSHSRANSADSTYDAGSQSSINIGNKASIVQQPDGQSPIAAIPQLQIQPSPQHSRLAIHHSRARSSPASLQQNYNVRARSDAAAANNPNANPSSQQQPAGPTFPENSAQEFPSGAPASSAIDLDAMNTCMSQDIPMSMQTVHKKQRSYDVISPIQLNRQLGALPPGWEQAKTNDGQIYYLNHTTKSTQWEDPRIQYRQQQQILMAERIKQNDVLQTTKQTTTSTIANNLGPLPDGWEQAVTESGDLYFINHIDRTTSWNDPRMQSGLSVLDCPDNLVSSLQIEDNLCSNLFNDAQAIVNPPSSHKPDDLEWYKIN

B1: Warts fused to Renilla luciferase (protein, UniProt Q9VA38 1-1105)
chain: MHPAGEKRGGRPNDKYTAEALESIKQDLTRFEVQNNHRNNQNYTPLRYTATNGRNDALTPDYHHAKQPMEPPPSASPAPDVVIPPPPAIVGQPGAGSISVSGVGVGVVGVANGRVPKMMTALMPNKLIRKPSIERDTASSHYLRCSPALDSGAGSSRSDSPHSHHTHQPSSRTVGNPGGNGGFSPSPSGFSEVAPPAPPPRNPTACSAATPPPPVPPTSQAYVKRRSPALNNRPPAIAPPTQRGNSPVITQNGLKNPQQQLTQQLKSLNLYPGGGSGAVVEPPPPYLIQGGAGGAAPPPPPPSYTASMQSRQSPTQSQQSDYRKSPSSGIYSATSAGSPSPITVSLPPAPLAKPQPRVYQARSQQPIIMQSVKSTQVQKPVLQTAVAPQSPSSASASNSPVHVLAAPPSYPQKSAAVVQQQQQAAAAAHQQQHQHQQSKPPTPTTPPLVGLNSKPNCLEPPSYAKSMQAKAATVVQQQQQQQQQQQQVQQQQVQQQQQQQQQQLQALRVLQAQAQRERDQRERDQRERERDQQKLANGNPGRQMLPPPPYQSNNNNNSEIKPPSCNNNNIQISNSNLATTPPIPPAKYNNNSSNTGANSSGGSNGSTGTTASSSTSCKKIKHASPIPERKKISKEKEEERKEFRIRQYSPQAFKFFMEQHIENVIKSYRQRTYRKNQLEKEMHKVGLPDQTQIEMRKMLNQKESNYIRLKRAKMDKSMFVKLKPIGVGAFGEVTLVSKIDTSNHLYAMKTLRKADVLKRNQVAHVKAERDILAEADNNWVVKLYYSFQDKDNLYFVMDYIPGGDLMSLLIKLGIFEEELARFYIAEVTCAVDSVHKMGFIHRDIKPDNILIDRDGHIKLTDFGLCTGFRWTHNSKYYQENGNHSRQDSMEPWEEYSENGPKPTVLERRRMRDHQRVLAHSLVGTPNYIAPEVLERSGYTQLCDYWSVGVILYEMLVGQPPFLANSPLETQQKVINWEKTLHIPPQAELSREATDLIRRLCASADKRLGKSVDEVKSHDFFKGIDFADMRKQKAPYIPEIKHPTDTSNFDPVDPEKLRSNDSTMSSGDDVDQNDRTFHGFFEFTFRRFFDDKQPPDMTDDQAPVYV
B2: Ex fused to Renilla luciferase (protein, UniProt Q07436 1-1427)
chain: MRAFCTVSAPLEVCASSAEQLSPGSRFLALRLLGQQQPKTLYFLVDAKSRVREVYTQTCLHFATQGMLDTELFGLAVLIDGEYMFADPESKLSKYGPKSWRSSHTHGLDANGRPLLELHFRVQFYIESPFMLKDETSRHNYYLQLRHNILQRDLPREQAEQALVFLAGLALQADLGDAPPGTSNSKDDSGEETSASPSNGGRGLSATTTLPKISKRANERMLRLSTYVASTSKRETIPLPPSLPPNGADYYRIEDYLPSGLHTPWARSAMRACHREHLGMATAEAELLYIQQACSLHETINAHTYRMRLAKSEQGSGSAWFVVYAKGIKILGGESTNSSSNPETTTFLWPNITKLSFERKKFEIRSGESRITLYAASDEKNKLLLTLCKDTHQWSMKLAARLKEVSKREEEEAAESQRLHASYACSRSLLLPYKSKNEQRISVISSTSSNTTSGIVSDRVHSEDELEIMINTPPAPLAAPSTESLALAHLLDRPSVSRQTSSVGQMSLKDLEEQLAALSVRPQDASSNGATIVTNSSVQRNSMGTTANDSSTATDSPSSQHNIGSQCSSTCSTVVVTSPVNGAGASSSGAPIPVHSTSSSLELGFSHTAQNSALSETSPDDFLSTSAREETESVSGASGVYTLAHGAPPTETSGVYTMHSSELTGQSSEIAESEKSSHYGMFQPQKLEETHVQHSDSVDGKKKEDFRPRSDSNVSTGSSFRGDGSDPTDNKHSLLSAEELTNLIVGRGTYPSRKTVSSSLHSDCDYVTLPLGDQGEEEVDQPPAPPPPYSARHEKTGLCGPPIAKPIPKPIAVVAPKPDSPPCSPPVPPAPIPAPPPAIRRRDPPPYSISSKPRPTSLISVSSSAHPAPSAAGSMSSLKSEEVTARFITTRPQISILKAHTSLIPDGAKPSYAAPHHCSSVASSNGSVCSHQLSQQSLHNSNYAGGSQASLHHHHVPSHHRHSGSAAIGIVPYGLHKSTASLHHQQSCVLLPVIKPRQFLAPPPPSLPRQPPPPPPPNHPHLASHLYEREMARKQLELYQQQLYSDVDYVIYPIQDPAVSQQEYLDAKQGSLLAAMAQAAPPPPHHPYLAMQVSPAIYRSTPYLPLTLSTHSRYASTQNLSDTYVQLPGPGYSPLYSPSMASLCSSYEPPPPPPLHPAALAAAAAAGAGSSSSSMFARSRSDDNILNSLDLLPKGKRLPPPPPPPYVNRRLKKPPMPAPSEKPPPIPSKPIPSRMSPIPPRKPPTLNPHHANSPLTKTSSGAQWAGERPRPDLGLGLGLNRGNNSILAQLQASMVAQSHAQAQAQALDIALLREKSKHLDLPLISALCNDRSLLKQTKVVINPKTGQEMPTSSAQPSGATTNGVANSSAGAGTLSKARKGSTVSHRHPQDKLPPLPVQQLAEANNYVIDPAVMMKQQQQQQQHNKTS
B3: Hth fused to Renilla luciferase (protein, UniProt O46339 1-487)
chain: MAQPRYDDGLHGYGMDSGAAAAAMYDPHAGHRPPGLQGLPSHHSPHMTHAAAAAATVGMHGYHSGAGGHGTPSHVSPVGNHLMGAIPEVHKRDKDAIYEHPLFPLLALIFEKCELATCTPREPGVQGGDVCSSESFNEDIAMFSKQIRSQKPYYTADPEVDSLMVQAIQVLRFHLLELEKVHELCDNFCHRYISCLKGKMPIDLVIDERDTTKPPELGSANGEGRSNADSTSHTDGASTPDVRPPSSSLSYGGAMNDDARSPGAGSTPGPLSQQPPALDTSDPDGKFLSSLNPSELTYDGRWCRREWSSPADARNADASRRLYSSVFLGSPDNFGTSASGDASNASIGSGEGTGEEDDDASGKKNQKKRGIFPKVATNILRAWLFQHLTHPYPSEDQKKQLAQDTGLTILQVNNWFINARRRIVQPMIDQSNRAVYTPHPGPSGYGHDAMGYMMDSQAHMMHRPPGDPGFHQGYPHYPPAEYYGQHL
B4: GAF fused to Renilla luciferase (protein, UniProt Q08605 1-582)
chain: MSLPMNSLYSLTWGDYGTSLVSAIQLLRCHGDLVDCTLAAGGRSFPAHKIVLCAASPFLLDLLKNTPCKHPVVMLAGVNANDLEALLEFVYRGEVSVDHAQLPSLLQAAQCLNIQGLAPQTVTKDDYTTHSIQLQHMIPQHHDQDQLIATIATAPQQTVHAQVVEDIHHQGQILQATTQTNAAGQQQTIVTTDAAKHDQAVIQAFLPARKRKPRVKKMSPTAPKISKVEGMDTIMGTPTSSHGSGSVQQVLGENGAEGQLLSSTPIIKSEGQKVETIVTMDPNNMIPVTSANAATGEITPAQGATGSSGGNTSGVLSTPKAKRAKHPPGTEKPRSRSQSEQPATCPICYAVIRQSRNLRRHLELRHFAKPGVKKEKKTTSGKKSSSGSSGSGSGALSSSGSVPQVQTVQSLHTLQGVQVKKDPDAQQQQQQQQQQQQQQQQQAMTVSGATGGQVQQQVQQVQQQVQQQQQQQQQQQQQLQHHQIIDSSGNITTATTSAQAAAAAQQQAAGQQQQLVAQSDGSESGAPLSIAQVQTLQGHQIIGNLNQVNITDFQQQQPQQQQQQQQQQQQQQQQQQQTQQTL
B5: Hippo fused to Renilla luciferase (protein, UniProt Q8T0S6 1-669)
chain: MSEPEVTSVVDMKSPNISSSCSFFKLKKLSEESLLQPPEKVFDIMYKLGEGSYGSVYKAVHKESSSIVAIKLVPVESDLHEIIKEISIMQQCDSPYVVRYYGSYFKQYDLWICMEYCGAGSVSDIMRLRKKTLTEDEIATILSDTLQGLVYLHLRRKIHRDIKAANILLNTEGYAKLADFGVAGQLTDTMAKRNTVIGTPFWMAPEVIEEIGYDCVADIWSLGITALEMAEGKPPYGEIHPMRAIFMIPQKPPPSFREPDRWSTEFIDFVSKCLVKEPDDRATATELLEHEFIRNAKHRSILKPMLEETCAIREQQRANRSFGGVLAASQAKSLATQENGMQQHITDNAFMEDPGTLVPEKFGEYQQSSASDATMIAHAEQGVDEGTLGPGGLRNLSKAAAPAAASSAASPLDMPAVDSGTMVELESNLGTMVINSDSDDSTTAKNNDDQKPRNRYRPQFLEHFDRKNAGDGRGDEKPIATEYSPAAAEQQQQQQQQQQQQQQDEQHLASGANDLNNWEHNMEMQFQQISAINQYGLQQHQQQQQVLMAYPLMNEQLIALNNQPNLLLSNAAPMGQQGIPAAAPAQPPPAYQNQHMHTQSHAYVEGEFEFLKFLTFDDLNQRLCNIDHEMELEIEQLNKKYNAKRQPIVDAMNAKRKRQQNINNNLIKI

Each molecule was assayed against T1, Flag-Firefly luciferase-Yki2 (Yorkie isoform with two WW domains, includes exon 3) (Drosophila) (assay: co-IP).

binding | Molecule
binds | 14.3.3 protein fused to Renilla luciferase (Drosophila)
binds | Cabut fused to Renilla luciferase (Drosophila)
binds | NcoA6 fused to Renilla luciferase (Drosophila)
binds | Renilla luciferase fused to Mor (Drosophila)
binds | Renilla luciferase fused to WW domain binding protein 2 (Drosophila)
binds | Tondu-domain-containing Growth Inhibitor fused to Renilla luciferase (Drosophila)

Each molecule was assayed against Flag-Firefly luciferase-Yki1 (Yorkie isoform with a single WW domain, skips exon 3) (Drosophila) (assay: co-IP).

binding | Molecule
binds | B1
binds | B2
binds | B3
binds | B4
binds | B5
